Measurements published in paper PMC11540327.
These are yes or no findings as the source states them, for the method shown. Binding seen in cells or lysates may run through a third protein. Here binding means that the protein was enriched with, or labelled near, the bait; the list need not be complete.

By UniProt entry, the sequences of proteins in these tests, tags left out.
UniProt P25655: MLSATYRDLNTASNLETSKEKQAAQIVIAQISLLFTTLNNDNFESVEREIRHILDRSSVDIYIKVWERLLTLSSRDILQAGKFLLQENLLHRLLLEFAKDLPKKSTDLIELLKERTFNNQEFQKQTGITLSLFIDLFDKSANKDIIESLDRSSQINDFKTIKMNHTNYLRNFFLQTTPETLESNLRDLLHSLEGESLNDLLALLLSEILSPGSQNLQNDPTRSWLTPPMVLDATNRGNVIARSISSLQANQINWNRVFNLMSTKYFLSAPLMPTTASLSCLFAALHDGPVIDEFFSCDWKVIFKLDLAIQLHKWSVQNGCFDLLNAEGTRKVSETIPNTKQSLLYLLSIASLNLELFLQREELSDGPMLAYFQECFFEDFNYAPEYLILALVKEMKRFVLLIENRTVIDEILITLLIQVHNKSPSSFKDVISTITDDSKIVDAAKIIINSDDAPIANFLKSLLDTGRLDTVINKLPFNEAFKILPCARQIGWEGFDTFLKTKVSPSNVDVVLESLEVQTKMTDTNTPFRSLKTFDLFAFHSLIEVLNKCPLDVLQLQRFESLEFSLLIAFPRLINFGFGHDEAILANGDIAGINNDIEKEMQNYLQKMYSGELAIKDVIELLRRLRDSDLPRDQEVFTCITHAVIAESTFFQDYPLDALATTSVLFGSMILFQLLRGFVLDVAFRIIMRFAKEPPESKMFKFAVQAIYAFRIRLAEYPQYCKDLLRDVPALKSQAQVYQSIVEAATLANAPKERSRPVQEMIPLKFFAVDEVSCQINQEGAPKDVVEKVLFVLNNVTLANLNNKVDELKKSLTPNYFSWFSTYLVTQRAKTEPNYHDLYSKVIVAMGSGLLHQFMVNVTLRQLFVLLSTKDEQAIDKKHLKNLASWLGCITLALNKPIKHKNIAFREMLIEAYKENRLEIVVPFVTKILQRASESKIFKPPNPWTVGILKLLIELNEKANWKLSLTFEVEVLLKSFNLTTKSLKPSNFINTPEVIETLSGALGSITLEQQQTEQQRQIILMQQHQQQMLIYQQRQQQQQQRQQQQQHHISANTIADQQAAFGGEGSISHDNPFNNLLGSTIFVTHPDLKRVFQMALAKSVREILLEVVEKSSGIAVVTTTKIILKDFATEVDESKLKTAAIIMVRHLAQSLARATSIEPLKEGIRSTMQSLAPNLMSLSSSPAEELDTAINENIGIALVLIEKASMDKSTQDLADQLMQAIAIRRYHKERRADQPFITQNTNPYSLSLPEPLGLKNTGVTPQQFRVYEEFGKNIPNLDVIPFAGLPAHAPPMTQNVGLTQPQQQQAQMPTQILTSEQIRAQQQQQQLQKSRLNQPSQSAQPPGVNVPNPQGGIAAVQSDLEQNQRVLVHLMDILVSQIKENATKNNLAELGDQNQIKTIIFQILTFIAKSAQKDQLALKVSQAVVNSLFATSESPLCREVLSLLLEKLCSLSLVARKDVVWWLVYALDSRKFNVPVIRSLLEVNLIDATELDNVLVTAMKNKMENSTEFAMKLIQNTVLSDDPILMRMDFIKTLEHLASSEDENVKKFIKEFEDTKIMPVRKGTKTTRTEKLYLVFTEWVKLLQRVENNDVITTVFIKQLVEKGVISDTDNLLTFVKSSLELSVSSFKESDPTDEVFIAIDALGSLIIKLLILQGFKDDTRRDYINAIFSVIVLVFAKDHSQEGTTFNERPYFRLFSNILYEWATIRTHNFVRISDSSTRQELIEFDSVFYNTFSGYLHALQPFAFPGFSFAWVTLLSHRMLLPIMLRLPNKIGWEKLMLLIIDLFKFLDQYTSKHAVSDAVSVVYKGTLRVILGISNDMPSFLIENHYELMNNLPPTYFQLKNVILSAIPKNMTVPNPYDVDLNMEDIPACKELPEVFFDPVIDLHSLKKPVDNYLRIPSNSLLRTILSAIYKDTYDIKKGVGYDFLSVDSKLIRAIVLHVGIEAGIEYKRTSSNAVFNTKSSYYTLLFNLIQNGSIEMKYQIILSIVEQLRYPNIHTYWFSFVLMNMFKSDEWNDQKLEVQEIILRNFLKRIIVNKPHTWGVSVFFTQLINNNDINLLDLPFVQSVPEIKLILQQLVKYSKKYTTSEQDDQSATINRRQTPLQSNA

Assays:
Assay in all cases: proximity labelling; TurboID fused to the bait at its chromosomal locus; cells in synthetic media with 1 μM biotin for 2 hr; biotinylated proteins captured on streptavidin magnetic beads under stringent washes, TMT mass spectrometry; enrichment >1.5-fold and P < 0.05 over free TID expressed from the HIS3 promoter; triplicate (Not4) or duplicate (other baits)
Caf1-TID (S. cerevisiae) = molecular target: T1, Caf1-TID (S. cerevisiae) (UniProt P39008)
T1 sequence: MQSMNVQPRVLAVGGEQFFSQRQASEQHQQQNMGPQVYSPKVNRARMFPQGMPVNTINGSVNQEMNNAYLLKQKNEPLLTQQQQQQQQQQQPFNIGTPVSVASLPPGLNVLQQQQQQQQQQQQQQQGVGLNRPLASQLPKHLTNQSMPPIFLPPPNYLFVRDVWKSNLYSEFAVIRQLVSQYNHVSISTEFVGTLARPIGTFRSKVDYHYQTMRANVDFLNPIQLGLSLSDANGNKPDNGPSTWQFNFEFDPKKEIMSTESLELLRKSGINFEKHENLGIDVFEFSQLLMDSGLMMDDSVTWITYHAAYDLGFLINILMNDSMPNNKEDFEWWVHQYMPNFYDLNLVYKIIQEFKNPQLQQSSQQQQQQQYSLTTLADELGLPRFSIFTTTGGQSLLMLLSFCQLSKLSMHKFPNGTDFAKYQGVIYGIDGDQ

Dhh1-TID (S. cerevisiae) = molecular target: T2, Dhh1-TID (S. cerevisiae) (UniProt P39517)
T2 sequence: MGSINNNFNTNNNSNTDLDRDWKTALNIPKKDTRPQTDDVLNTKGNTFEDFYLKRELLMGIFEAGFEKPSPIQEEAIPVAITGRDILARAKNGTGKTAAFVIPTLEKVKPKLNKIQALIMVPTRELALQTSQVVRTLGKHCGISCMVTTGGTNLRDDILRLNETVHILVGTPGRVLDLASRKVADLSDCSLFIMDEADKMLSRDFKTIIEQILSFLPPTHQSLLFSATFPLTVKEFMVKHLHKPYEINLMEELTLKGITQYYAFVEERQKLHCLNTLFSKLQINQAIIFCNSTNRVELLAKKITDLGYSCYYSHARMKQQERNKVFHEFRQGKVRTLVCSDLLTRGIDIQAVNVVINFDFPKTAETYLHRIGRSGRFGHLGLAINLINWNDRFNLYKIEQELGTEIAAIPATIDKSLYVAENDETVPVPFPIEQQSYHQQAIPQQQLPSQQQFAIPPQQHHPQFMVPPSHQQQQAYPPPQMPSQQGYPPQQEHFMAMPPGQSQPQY

Not1-TID (S. cerevisiae) = Not1-TID (S. cerevisiae) (UniProt P25655)
[1] = molecular target: T3, Not4-TID-3HA (S. cerevisiae) (UniProt P34909)
T3 sequence: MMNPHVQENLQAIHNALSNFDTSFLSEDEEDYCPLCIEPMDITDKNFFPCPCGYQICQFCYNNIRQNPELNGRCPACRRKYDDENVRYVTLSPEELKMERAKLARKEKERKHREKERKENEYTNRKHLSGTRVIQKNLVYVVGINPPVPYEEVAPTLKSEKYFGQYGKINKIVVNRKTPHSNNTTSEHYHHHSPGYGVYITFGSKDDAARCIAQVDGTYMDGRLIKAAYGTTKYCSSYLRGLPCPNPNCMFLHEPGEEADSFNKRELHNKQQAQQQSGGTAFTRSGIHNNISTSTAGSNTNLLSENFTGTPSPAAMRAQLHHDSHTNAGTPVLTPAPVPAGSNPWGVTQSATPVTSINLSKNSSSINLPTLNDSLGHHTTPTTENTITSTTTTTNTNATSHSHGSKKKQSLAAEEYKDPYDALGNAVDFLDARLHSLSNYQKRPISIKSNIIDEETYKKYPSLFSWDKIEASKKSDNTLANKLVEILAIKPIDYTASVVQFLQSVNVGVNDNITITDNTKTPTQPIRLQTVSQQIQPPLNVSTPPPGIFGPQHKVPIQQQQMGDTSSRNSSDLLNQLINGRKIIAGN

Measured: binding

B1: Def1 (protein, UniProt P35732 1-738)
chain: MSTQFRKSNHNSHSSKKLNPALKSKIDTLTELFPDWTSDDLIDIVQEYDDLETIIDKITSGAVTRWDEVKKPAKKEKYEKKEQQHSYVPQQHLPNPEDDITYKSSNNSNSFTSTKHNSSNNYTQARNKKKVQTPRAHTTGKHVNLDKGKHVPSKPVSNTTSWAAAVSVDTKHDVPQDSNDNNNEELEAQGQQAQEKNQEKEQEEQQQQEGHNNKEEHKQIEQPSLSSKKTTSRTSASQPKKMSWAAIATPKPKAVKKTESPLENVAELKKEISDIKKDDQKSEASEEKVNEQETSAQEQEEETAEPSEENEDRVPEVDGEEVQEEAEKKEQVKEEEQTAEELEQEQDNVAAPEEEVTVVEEKVEISAVISEPPEDQANTVPQPQQQSQQPQQPQQPQQPQQPQQPQQQQQPQQPQQPQQQLQQQQQQQQQPVQAQAQAQEEQLSQNYYTQQQQQQYAQQQHQLQQQYLSQQQQYAQQQQQHPQPQSQQPQSQQSPQSQKQGNNVAAQQYYMYQNQFPGYSYPGMFDSQGYAYGQQYQQLAQNNAQTSGNANQYNFQQGYGQAGANTAAANLTSAAAAAAASPATAHAQPQQQQPYGGSFMPYYAHFYQQSFPYGQPQYGVAGQYPYQLPKNNYNYYQTQNGQEQQSPNQGVAQHSEDSQQKQSQQQQQQQPQGQPQPEVQMQNGQPVNPQQQMQFQQYYQFQQQQQQAAAAAAAAAQQGVPYGYNGYDYNSKNSRGFY
binds: all assays above
